The values that follow come from patent publication US20040197345A1.

By UniProt entry, the sequences of proteins in these tests, tags left out.
UniProt P10275: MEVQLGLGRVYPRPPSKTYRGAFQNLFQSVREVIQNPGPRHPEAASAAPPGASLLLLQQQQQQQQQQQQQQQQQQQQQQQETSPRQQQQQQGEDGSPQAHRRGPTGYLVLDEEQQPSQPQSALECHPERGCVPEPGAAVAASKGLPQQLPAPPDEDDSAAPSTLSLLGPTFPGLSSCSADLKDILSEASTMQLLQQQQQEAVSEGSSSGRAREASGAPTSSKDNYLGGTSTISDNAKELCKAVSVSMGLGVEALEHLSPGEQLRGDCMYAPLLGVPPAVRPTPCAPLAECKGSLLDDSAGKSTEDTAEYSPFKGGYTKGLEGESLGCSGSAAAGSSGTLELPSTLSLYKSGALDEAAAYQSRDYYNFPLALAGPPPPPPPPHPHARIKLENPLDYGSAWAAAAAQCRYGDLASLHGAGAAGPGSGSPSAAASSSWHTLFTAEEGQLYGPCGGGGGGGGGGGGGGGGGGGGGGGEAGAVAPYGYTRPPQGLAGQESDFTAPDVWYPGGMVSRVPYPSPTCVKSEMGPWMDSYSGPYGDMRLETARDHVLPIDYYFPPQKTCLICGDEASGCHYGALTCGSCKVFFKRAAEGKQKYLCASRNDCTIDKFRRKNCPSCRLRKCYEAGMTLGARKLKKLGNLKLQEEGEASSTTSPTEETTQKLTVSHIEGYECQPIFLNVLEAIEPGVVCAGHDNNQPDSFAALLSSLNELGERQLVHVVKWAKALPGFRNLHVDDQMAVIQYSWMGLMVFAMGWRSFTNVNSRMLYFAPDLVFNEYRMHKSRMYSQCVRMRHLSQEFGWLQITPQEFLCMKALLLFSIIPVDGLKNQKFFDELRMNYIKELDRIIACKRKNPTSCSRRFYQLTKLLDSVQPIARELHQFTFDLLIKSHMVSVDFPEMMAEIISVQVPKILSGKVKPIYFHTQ

These are yes or no findings as the source states them, for the method shown. Binding seen in cells or lysates may run through a third protein. Some results given as binding are weak or reduced against the parent protein; the word gives no strength.

The target in the assay is androgen receptor (UniProt P10275). The assay is described as follows: GST pull-down.

B1: Prostate Derived Ets Factor (PDEF), full length (protein)
chain: MGSASPGLSSVSPSHLLLPPDTVSRTGLEKAAAGAVGLERRDWSPSPPATPEQGLSAFYLSYFDMLYPEDSSWAAKAPGASSREEPPEEPEQCPVIDSQAPAGSLDLVPGGLTLEEHSLEQVQSMVVGEVLKDIETACKLLNITADPMDWSPSNVQKWLLWTEHQYRLPPMGKAFQELAGKELCAMSEEQFRQRSPLGGDVLHAHLDIWKSAAWMKERTSPGAIHYCASTSEESWTDSEVDSSCSGQPIHLWQFLKELLLKPHSYGRFIRWLNKEKGIFKIEDSAQVARLWGIRKNRPAMNYDKLSRSIRQYYKKGIIRKPDISQRLVYQFVHPI
As to B1, the binding entry is listed as “binds”.
